Values from PubChem BioAssay AID1259308 (NCATS, 2017)
Aim: 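Candidate targets for better recombinant protein yield in mammalian cells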 (primary screen). System: human HEK293 embryonic kidney cells stably expressing firefly luciferase (HEK-CMV-Luc2-Hygro). Reagent: single siRNA against human genes, 0.8 pmol siRNA per well. Duration: 72 h. Read-out: 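Luciferase light (ONE-Glo) measured on one replicate plate set and viability (CellTiter-Glo) on the other, scaled to a negative control siRNA, with robust z-scores and luciferase per cell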. Scale: total luciferase, z-score and total luciferase, % of control: higher = more reporter protein produced; luciferase per cell, z-score: higher = more reporter output per viable cell; viable cells, % of control: higher = more viable cells. Call rule: 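Active when the median/MAD z-score for overall luciferase is greater than 3; a gene was taken forward for validation with new siRNAs if at least two of its three siRNAs passed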. Meaning of the calls: active = raised luciferase; inactive = no rise.
In all, the deposit lists about 59,000 reagents; below is an unselected part. Over the whole deposit, about 1,510 (2.6%) are marked active. 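Calls use total luciferase alone and ignore viability, so some active siRNAs may act by altering cell number.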 A number with no mark means an inactive call. The numbers tell different reagents against one gene apart.

total luciferase, z-score	total luciferase, % of control	luciferase per cell, z-score	viable cells, % of control	gene	siRNA no.
0.663	95.1	0.0463	105	CIP2A (cellular inhibitor of PP2A)	1
-0.774	66.5	-0.842	92.7	CIP2A (cellular inhibitor of PP2A)	2
-1.1	60	-1.67	104	CIP2A (cellular inhibitor of PP2A)	3
-1.14	59.2	-0.23	70.3	PLD6 (phospholipase D family member 6)	1
0.254	86.9	1.66	62.8	PLD6 (phospholipase D family member 6)	2
0.641	94.6	1.38	73.5	PLD6 (phospholipase D family member 6)	3
0.498	91.8	0.468	90.7	ACE2 (angiotensin converting enzyme 2)	1
1.42	110	1.42	84.8	ACE2 (angiotensin converting enzyme 2)	2
3.32 (active)	148	1.82	102	ACE2 (angiotensin converting enzyme 2)	3
1.42	110	1.67	79.3	PRDM14 (PR/SET domain 14)	1
0.568	93.2	0.26	97.3	PRDM14 (PR/SET domain 14)	2
-1.43	53.5	-1.52	89.2	PRDM14 (PR/SET domain 14)	3
2.57	133	1.51	99.9	RALY (RALY heterogeneous nuclear ribonucleoprotein)	1
-0.678	68.4	-1.11	102	RALY (RALY heterogeneous nuclear ribonucleoprotein)	2
0.159	85	0.313	87.5	RALY (RALY heterogeneous nuclear ribonucleoprotein)	3
-1.49	52.3	-1.93	97.2	ANKRD30A (ankyrin repeat domain 30A)	1
-0.618	69.6	-0.131	80.5	ANKRD30A (ankyrin repeat domain 30A)	2
-1.28	56.4	-1.45	92.4	ANKRD30A (ankyrin repeat domain 30A)	3
-0.267	76.6	-0.226	90.8	NUGGC (nuclear GTPase, germinal center associated)	1
0.424	90.3	-0.134	105	NUGGC (nuclear GTPase, germinal center associated)	2
0.369	89.2	0.0887	97.4	NUGGC (nuclear GTPase, germinal center associated)	3
0.17	85.3	2.97	43.6	KLF2 (KLF transcription factor 2)	1
0.167	85.2	1.32	67.3	KLF2 (KLF transcription factor 2)	2
0.786	97.5	1	83.7	KLF2 (KLF transcription factor 2)	3
-0.897	64	-0.935	91.6	CBFB (core-binding factor subunit beta)	1
0.87	99.2	1.39	76.9	CBFB (core-binding factor subunit beta)	2
-1.43	53.4	-1.01	77.9	CBFB (core-binding factor subunit beta)	3
1.87	119	1.93	80	S100A10 (S100 calcium binding protein A10)	1
0.308	88	0.0685	96.6	S100A10 (S100 calcium binding protein A10)	2
2.2	126	1.63	91.3	S100A10 (S100 calcium binding protein A10)	3
2.19	126	3.04	62.9	FGF22 (fibroblast growth factor 22)	1
0.385	89.5	-0.114	103	FGF22 (fibroblast growth factor 22)	2
0.53	92.4	0.409	92.7	FGF22 (fibroblast growth factor 22)	3

Records above whose target name starts with C or c:
total luciferase, z-score	total luciferase, % of control	luciferase per cell, z-score	viable cells, % of control	gene	siRNA no.
0.663	95.1	0.0463	105	CIP2A (cellular inhibitor of PP2A)	1
-0.774	66.5	-0.842	92.7	CIP2A (cellular inhibitor of PP2A)	2
-1.1	60	-1.67	104	CIP2A (cellular inhibitor of PP2A)	3
-0.897	64	-0.935	91.6	CBFB (core-binding factor subunit beta)	1
0.87	99.2	1.39	76.9	CBFB (core-binding factor subunit beta)	2
-1.43	53.4	-1.01	77.9	CBFB (core-binding factor subunit beta)	3

More entries follow:
total luciferase, z-score	total luciferase, % of control	luciferase per cell, z-score	viable cells, % of control	gene	siRNA no.
-0.565	70.6	-0.67	94.2	MYH8 (myosin heavy chain 8)	1
0.273	87.3	0.291	90.4	MYH8 (myosin heavy chain 8)	2
-0.754	66.9	-0.544	86.3	MYH8 (myosin heavy chain 8)	3
-0.258	76.8	-0.54	98.9	GGCX (gamma-glutamyl carboxylase)	1
1.42	110	1.85	75.5	GGCX (gamma-glutamyl carboxylase)	2
0.278	87.4	0.0779	95.7	GGCX (gamma-glutamyl carboxylase)	3
0.201	85.9	-0.246	102	PSMB10 (proteasome 20S subunit beta 10)	1
0.623	94.3	1.01	80.7	PSMB10 (proteasome 20S subunit beta 10)	2
0.0382	82.6	-0.0833	94.4	PSMB10 (proteasome 20S subunit beta 10)	3
0.269	87.2	-0.319	106	ANTKMT (adenine nucleotide translocase lysine methyltransferase)	1
-1.71	47.8	-0.774	65.5	ANTKMT (adenine nucleotide translocase lysine methyltransferase)	2
1.19	106	1.11	88	ANTKMT (adenine nucleotide translocase lysine methyltransferase)	3
-0.0206	81.5	0.211	86.1	SCGB1B2P (secretoglobin family 1B member 2, pseudogene)	1
0.262	87.1	0.457	86.3	SCGB1B2P (secretoglobin family 1B member 2, pseudogene)	2
-0.167	78.6	-0.413	97.9	SCGB1B2P (secretoglobin family 1B member 2, pseudogene)	3
-1.28	56.4	-1.27	88	SLC6A20	1
2.19	125	1.73	88.8	SLC6A20	2
0.67	95.2	0.541	92.3	SLC6A20	3
0.981	101	1.11	84.6	ALKBH6 (alkB homolog 6, nucleotide demethylase)	1
1.51	112	0.64	106	ALKBH6 (alkB homolog 6, nucleotide demethylase)	2
0.797	97.7	1.53	72.9	ALKBH6 (alkB homolog 6, nucleotide demethylase)	3
-0.413	73.7	-0.913	105	PCDH9 (protocadherin 9)	1
-1.14	59.2	-0.483	75.1	PCDH9 (protocadherin 9)	2
-0.479	72.4	-1.15	109	PCDH9 (protocadherin 9)	3
-0.376	74.4	-0.158	86.7	ENKUR (enkurin, TRPC channel interacting protein)	1
-1.7	48.1	0.0776	52.7	ENKUR (enkurin, TRPC channel interacting protein)	2
-0.859	64.8	-0.7	87	ENKUR (enkurin, TRPC channel interacting protein)	3
-1.21	57.8	-0.461	72.9	MT3 (metallothionein 3)	1
1.67	115	0.514	112	MT3 (metallothionein 3)	2
-0.0702	80.5	0.113	87.3	MT3 (metallothionein 3)	3
0.755	96.9	0.447	96.3	OTUD6B (OTU deubiquitinase 6B)	1
0.0972	83.8	0.623	79.5	OTUD6B (OTU deubiquitinase 6B)	2
-0.274	76.4	0.0179	85	OTUD6B (OTU deubiquitinase 6B)	3
0.869	99.2	0.605	94.5	SPNS1 (SPNS lysolipid transporter 1, lysophospholipid)	1
5.03 (active)	182	3.14	89	SPNS1 (SPNS lysolipid transporter 1, lysophospholipid)	2
0.03	82.5	-0.57	107	SPNS1 (SPNS lysolipid transporter 1, lysophospholipid)	3
0.49	91.6	-0.602	120	TLR1 (toll like receptor 1)	1
-0.431	73.3	-1.03	107	TLR1 (toll like receptor 1)	2
0.47	91.2	0.857	81.4	TLR1 (toll like receptor 1)	3
-0.462	72.7	-0.304	88	CCDC77 (coiled-coil domain containing 77)	1
0.119	84.3	-0.132	97.5	CCDC77 (coiled-coil domain containing 77)	2
-0.0983	79.9	-0.374	98.6	CCDC77 (coiled-coil domain containing 77)	3
